These results are taken from patent US9604931B2, “Nuclear receptor binding agents” (GTx, Inc., priority 2007, dated 2017).

The subject of this experiment is Rat Aortic Smooth Muscle Cells (RASMC). The experiment in a line: RASMC cell proliferation assay (WST-1). To be noted: inhibitory effect sigmoid Emax model, read-out: EC50 for inhibition of RASMC proliferation. In kind it is cell-based. The protocol:
EC50 values were calculated using WinNonLin 5.0.1 using the inhibitory effect sigmoid Emax model.

For the molecule `CC/C(=C(\c1ccccc1)c1ccc(OCCN(C)C)cc1)c1ccccc1` [Tamoxifen, reference compound], the EC50 was 4.03 µM.
